Results are given in words; binding and its absence hold for the method and conditions named. Some results given as binding are weak or reduced against the parent protein; the word gives no strength.
Columns and labels:
[1] = target: Aβ(1-42) globulomer (human); assay: competition ELISA on plate-coated A-Beta antigen (1-42); competitor: biotinylated mouse 8F5 antibody (tracer, per legend paragraph 41); Neutra Avidin HRP/TMB, O.D. 450 nm
[2] = target: Aβ(1-42) globulomer (human); assay: competition ELISA (FIG. 3)
[3] = target: Aβ(1-42) globulomer (human); assay: dot blot immunoassay

Measured: binding

B1: humanized monoclonal antibody 8F5hum8 (antibody, V domains shown)
VH: EVQLVESGGGLVQPGGSLRLSCAASGFTFSSYGMSWVRQAPGKGLELVASINSNGGSTYYPDSVKGRFTISRDNAKNTLYLQMNSLRAEDTAVYYCASGDYWGQGTLVTVSS
VL: DIVMTQSPLSLPVTPGEPASISCRSSQSLVYSNGDTYLHWYLQKPGQSPKLLIYKVSNRFSGVPDRFSGSGSGTDFTLKISRVEAEDVGVYYCSQSTHVPWTFGGGTKVEIKR
binds: all assays above

From patent US20090232801A1
